Reference: PubChem BioAssay AID1259415 (National Center for Advancing Translational Sciences (NCATS), 2018)
Values joined by “and” are separate entries in the source; they are usually repeats but may differ in a detail not shown here. Equal entries are not always repeated. About 18,000 (4.4%) of roughly 410,000 compounds were called active. Inconclusive results, whose numbers are uncertain, are shown with a selection of clear calls. Rule as the data show it: active = activity change below about -60%; inconclusive = no clear call, values can overlap the other calls; inactive = above about -39%.

assay: qHTS Assay for inhibitors of the human cytomegalovirus (HCMV); conditions: HFF cells, HCMV-luciferase reporter, 72 h; at 57.5 µM; active compounds read low
In short: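 Human foreskin fibroblasts infected with luciferase-reporter HCMV at MOI 1 PFU/cell, compounds at two doses. Luciferase measured 72 h post infection; normalized to buffer-only basal and Salinomycin (10uM) controls.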
% is scaled to controls: 0 for no effect and ±100 for the full control effect.

Row | SMILES | activity change, negative = inhibition
1 | Cc1ccc2cc(C#N)c(N3CCN(C(=O)c4ccccc4)CC3)nc2c1 | inconclusive: -41.8%
2 | CSc1ccccc1NC(=O)CN1CCN(c2ccccn2)CC1 | active: -63%
3 | COc1ccccc1/C=C/C(=O)Oc1cccc2cccnc12 | inconclusive: -53.6%
4 | Cc1ccc(N2C(N)=C(C#N)C(c3cccs3)C3=C2CC(C)(C)CC3=O)cc1 (stereo not given) | inconclusive: -47.7%
5 | N#CC[C@H](c1ccccc1)N1CCN(Cc2ccccc2)CCC1=O | inactive: -30.3%
6 | O=[N+]([O-])c1ccc(CSc2nnc(Cc3ccccc3)n2-c2ccc(F)cc2)cc1 | inconclusive: -40.8%
7 | COC(=O)c1ccc(NC(=O)CSc2nc3ncccc3[nH]2)cc1 | inactive: 32.1%
8 | COc1ccccc1/C=C(/C(=O)OCC(N)=O)c1ccccc1 | inconclusive: -48.8%
9 | COc1ccc(C(=O)NCCS(=O)(=O)NCc2ccc(C)cc2)cc1 | inactive: -21.9%
10 | Cc1cc(C)c(NC(=O)CSc2ncc3c(n2)-c2cc(Cl)ccc2N(C)S3(=O)=O)c(C)c1 | inconclusive: -56%
11 | C=Cc1ccc(Cn2c(C(=O)O)c(CNCc3ccc(F)cc3)c3ccc(C)cc32)cc1 | active: -91.2%
12 | O=C(NCCN1CCOCC1)c1ccc(N2CCCC2)c([N+](=O)[O-])c1 | inconclusive: -43.8%
13 | Cc1cc(C)c(C#N)c(SCCS(=O)(=O)c2ccc(Cl)cc2)n1 | inconclusive: -58.7%
14 | O=C(NNC(=O)c1ccc(Br)s1)c1csc(N2CCOCC2)n1 | inconclusive: 0%
15 | COc1ccc(OC(C)C(=O)Nc2cccc(F)c2)cc1 (stereo not given) | inactive: -20.6%
16 | CCCC(=O)N(c1ccc2oc(C)c(C(C)=O)c2c1)S(=O)(=O)c1ccc(CC)cc1 | active: -92.7%
17 | COc1ccc(N2CCN(c3ncnc4c3cnn4C)CC2)cc1 | active: -61%
18 | COc1ccccc1CNc1nc(Nc2cccc(-c3cnco3)c2)c2sccc2n1 | inconclusive: -40.9%
19 | CCOc1cccc(NC(=O)C2CC(=O)N(CC)C(=Nc3ccc(F)cc3)S2)c1 (stereo not given) | inactive: -1.16%
20 | CC(C)(C)c1ccc(/C=C/C(=O)Nc2ccc(S(N)(=O)=O)cc2)cc1 | inconclusive: -43.6%
21 | CCOc1ccc(CCNC(=O)c2cc3cccc4c3n2CCS4)cc1 | inconclusive: 0%
22 | O=C(c1cccc(S(=O)(=O)NCc2ccccc2)c1)N1CCN(c2cccc(C(F)(F)F)c2)CC1 | inconclusive: -40.4%

Row | SMILES | activity change, negative = inhibition
23 | Cn1nc(C(=O)Nc2cccc(Cl)c2)cc1C(=O)Nc1cccc(Cl)c1 | inconclusive: -55.3%
24 | Cc1c([N+](=O)[O-])cc(C(=O)Nc2ccc(NC(=O)c3ccco3)cc2)cc1[N+](=O)[O-] | inconclusive: -50.9%
25 | CCCCC(CCC(=O)O)(C(=O)OCC)c1csc(Nc2ccc(C)cc2)n1 (stereo not given) | inconclusive: -40.5%
26 | c1ccc(OCCOCCN2CCN(C(c3ccccc3)c3ccccc3)CC2)cc1 | inconclusive: -40.9%
27 | CC(C)NC(=O)N1CCCN(c2nc3ccc(Cl)cc3s2)CC1 | inconclusive: -58%
28 | NC(=O)C1CN(C(=O)c2cccc(S(=O)(=O)N3CCc4ccccc43)c2)c2ccccc2O1 (stereo not given) | active: -105%
29 | COc1ccc2[nH]c(C)c(CCN(Cc3cccs3)C(=S)Nc3ccccc3)c2c1 | inconclusive: -57.2%
30 | COc1ccc(C(=O)c2c(O)cc(-c3ccc(OC)cc3)oc2=O)cc1 | inconclusive: -41.9%
31 | CCOC(=O)c1c(-c2ccc(C)cc2)csc1/N=C/N(C)C | inconclusive: -40.9%
32 | CN(C(=O)CSc1nnc(NC(=O)Nc2ccccc2)s1)c1ccccc1 | inconclusive: -49.2%
33 | COc1ccccc1C(=O)C1CCCN(C(=O)c2ccc3c(c2)OCCO3)C1 (stereo not given) | inconclusive: -53.2%
34 | Cc1ccc2c(c1)N(C(=O)CCC(=O)N1CCN(c3cccc(C)c3C)CC1)CCO2 | inconclusive: -58.7%
35 | COC(=O)[C@H]1CCCN1C(=O)Nc1cccc(Oc2c(F)c(F)c(F)c(F)c2F)c1 | inconclusive: -43.7%
36 | Cc1ccccc1CNC(=O)c1cnc2sc(N3CCC(C)CC3)nn2c1=O | inactive: 3.97%
37 | COc1cccc(NC(=O)COC(=O)c2cc(S(=O)(=O)N3CCOCC3)ccc2C)c1 | inactive: 21.9%
38 | O=C(Nc1ccc(-c2cn3ccsc3n2)cc1)c1ccc(F)c(S(=O)(=O)N2CCOCC2)c1 | inconclusive: -57.7%
39 | O=C(C1=C[C@@H](c2ccc(C(F)(F)F)cc2)C[C@@H](OCc2ccc(CO)cc2)O1)N1CCOCC1 | inactive: -3.86%
40 | COc1cccc2sc(N(Cc3cccnc3)C(=O)c3ccc4c(c3)OCCO4)nc12 | inconclusive: -48.3%
41 | CCCc1nc2ccccc2c(NC(=O)CN(CC)CC)c1CC | inactive: -11.6%
42 | CC(=O)c1ccc(OCCCC(=O)Nc2cc(S(=O)(=O)N3CCCCC3)ccc2C)cc1 | inactive: -21.6%
43 | CCN1C(=O)c2ccc(C(=O)Nc3nccs3)cc2C1=O | inconclusive: -40.9%
44 | Cc1ccc(S(=O)(=O)NCc2ccncc2)cc1C | active: -67.6%

17 entries from above, as comma-separated lines.
Row,SMILES,"activity change, negative = inhibition"
23,Cn1nc(C(=O)Nc2cccc(Cl)c2)cc1C(=O)Nc1cccc(Cl)c1,inconclusive: -55.3%
24,Cc1c([N+](=O)[O-])cc(C(=O)Nc2ccc(NC(=O)c3ccco3)cc2)cc1[N+](=O)[O-],inconclusive: -50.9%
25,CCCCC(CCC(=O)O)(C(=O)OCC)c1csc(Nc2ccc(C)cc2)n1 (stereo not given),inconclusive: -40.5%
27,CC(C)NC(=O)N1CCCN(c2nc3ccc(Cl)cc3s2)CC1,inconclusive: -58%
28,NC(=O)C1CN(C(=O)c2cccc(S(=O)(=O)N3CCc4ccccc43)c2)c2ccccc2O1 (stereo not given),active: -105%
29,COc1ccc2[nH]c(C)c(CCN(Cc3cccs3)C(=S)Nc3ccccc3)c2c1,inconclusive: -57.2%
30,COc1ccc(C(=O)c2c(O)cc(-c3ccc(OC)cc3)oc2=O)cc1,inconclusive: -41.9%
31,CCOC(=O)c1c(-c2ccc(C)cc2)csc1/N=C/N(C)C,inconclusive: -40.9%
32,CN(C(=O)CSc1nnc(NC(=O)Nc2ccccc2)s1)c1ccccc1,inconclusive: -49.2%
34,Cc1ccc2c(c1)N(C(=O)CCC(=O)N1CCN(c3cccc(C)c3C)CC1)CCO2,inconclusive: -58.7%
35,COC(=O)[C@H]1CCCN1C(=O)Nc1cccc(Oc2c(F)c(F)c(F)c(F)c2F)c1,inconclusive: -43.7%
36,Cc1ccccc1CNC(=O)c1cnc2sc(N3CCC(C)CC3)nn2c1=O,inactive: 3.97%
39,O=C(C1=C[C@@H](c2ccc(C(F)(F)F)cc2)C[C@@H](OCc2ccc(CO)cc2)O1)N1CCOCC1,inactive: -3.86%
40,COc1cccc2sc(N(Cc3cccnc3)C(=O)c3ccc4c(c3)OCCO4)nc12,inconclusive: -48.3%
42,CC(=O)c1ccc(OCCCC(=O)Nc2cc(S(=O)(=O)N3CCCCC3)ccc2C)cc1,inactive: -21.6%
43,CCN1C(=O)c2ccc(C(=O)Nc3nccs3)cc2C1=O,inconclusive: -40.9%
44,Cc1ccc(S(=O)(=O)NCc2ccncc2)cc1C,active: -67.6%

Continuation.

Row | SMILES | activity change, negative = inhibition
45 | CCOC(=O)N1CCC(Nc2c(-c3ccc(C)cc3)c(=O)c2=O)CC1 | inactive: -10.3%
46 | COc1ccc(CN2CCN(C(C)C(=O)N(C)Cc3cccc(F)c3)CC2)cc1OC (stereo not given) | active: -102%
47 | COc1ccccc1N1CCN(c2ncnc3c2nnn3C)CC1 | inactive: -0.104%
48 | CC(=O)c1c(C(C)=O)c(C)n(-c2nc(-c3ccccc3)c(C)s2)c1C | inconclusive: -46.4%
49 | CN1CCCCCC1C(=O)N1CCC(N2CCC(C(=O)N3CCOCC3)CC2)CC1 (stereo not given) | inactive: -24.7%
50 | CC(C)=NNc1nc2sc3c(c2c(=O)[nH]1)CC(C)(C)OC3 | inconclusive: -41%
51 | CCC(=O)Oc1ccc(C(=O)Nc2ccccc2C(=O)NCC(C)C)cc1 | inconclusive: -42.7%
52 | O=C(/C(=N/O)c1ccccc1)c1ccccc1 | inconclusive: -55.8%
53 | COc1ccccc1C1c2c(-c3ccc(Cl)cc3)n[nH]c2C(=O)N1c1ccc(C)cc1 (stereo not given) | active: -105%
54 | Cc1cccc(NC(=O)c2cc(S(=O)(=O)NCCc3ccccc3)ccc2F)c1C | inconclusive: -47.1%
55 | CCCNC(=O)CSc1nc2ccc(OCC)cc2s1 | inconclusive: -46.5%
56 | COc1cc(C(=O)NCC(c2cccs2)N(C)C)cc(Cl)c1OC(C)C (stereo not given) | active: -61.2%
57 | COc1ccc(NC(=O)c2sc3nc4c(cc3c2N)CN(Cc2ccccc2)CC4)c(OC)c1 | active: -94.8%
58 | N=c1c2ccccc2nc2n1CCCCCCCCCCC2 | inconclusive: -59.8%
59 | CCCC(=O)NCCc1nc2cc([N+](=O)[O-])ccc2n1C | inconclusive: -40.8%
60 | CCn1cc(/C=C(\NC(=O)c2ccccc2F)C(=O)NCCN2CCOCC2)c2ccccc21 | inactive: 16.1%
61 | Cc1cc(NC(=O)CSc2nc3cc(C(=O)NCCCOC(C)C)ccc3c(=O)n2Cc2ccco2)no1 | active: -84%
62 | CCc1sc(C(=O)N(CCCOC)c2c(N)n(CC(C)C)c(=O)[nH]c2=O)cc1C | inconclusive: -42.3%
63 | CC(CC(=O)N1CCc2ccccc21)S(=O)(=O)c1ccc2c(c1)NC(=O)CO2 (stereo not given) | inactive: -26%
64 | CCn1cc(C(=O)N[C@H](C(=O)NC(C)(C)CO)C(C)C)c(=O)c2cc3c(cc21)OCO3 | inactive: 32.8%
65 | CN=c1scc(-c2ccc([N+](=O)[O-])cc2)n1/N=C/c1ccco1 | active: -87.4%
66 | Cc1nn(Cc2ccccc2)c(Cl)c1/C=C/C(=O)OCC(=O)NC(C)C(C)C (stereo not given) | inactive: -5.56%

Row | SMILES | activity change, negative = inhibition
67 | Cc1ccc(Nc2nc(NCc3ccco3)c3ccccc3n2)cc1 | active: -82.4%
68 | Cc1ccccc1NC(=S)NC(NC(=O)c1ccccc1C)C(Cl)(Cl)Cl (stereo not given) | inconclusive: -45.8%
69 | O=S1(=O)[C@H]2C[C@@H]3C=C[C@@]2(CN1Cc1cccc(Cl)c1)O3 | inconclusive: -48.9%
70 | Nc1nc(-c2ccccc2)nc2nonc12 | inactive: -28%
71 | CC1CCN(S(=O)(=O)Cc2ccccc2Cl)CC1 | inconclusive: -44%
72 | O=C(CSc1nc(C2CCCCC2)nc2ccccc12)NCc1ccco1 | active: -102%
73 | CN(c1ccccc1)S(=O)(=O)c1ccc(NC(=O)c2nc(S(C)(=O)=O)ncc2Cl)cc1 | active: -99.6% and active: -111%
74 | Cc1nc2nc(C)n(CCN3CCOCC3)c(=O)c2c(-c2cccc([N+](=O)[O-])c2)c1C(=O)CCCCCCCCCCN1CCC(c2ccccc2)(c2ccccc2)CC1 | active: -77.8%
75 | Cc1ccsc1C(=O)C1CCCN(Cc2ccc(O)cc2)C1 (stereo not given) | inactive: 66.6%
76 | C=CCOc1ccc(CNc2ccc3[nH]c(=O)[nH]c3c2)cc1 | inconclusive: -47.3%
77 | O=C(O)C(C/C(=N/O)c1ccc(Br)cc1)P(=O)(c1ccccc1)c1ccccc1 (stereo not given) | inconclusive: 0%
78 | COc1cc2c(-c3cccc(Cl)c3)nc3c(c(C)nn3-c3ccccc3)c2cc1OC | inactive: 16.1%
79 | CC(C)NC(=S)N/N=C1\CCCCc2ccccc21 | inconclusive: -53.8%
80 | O=C(C1CCC(CNS(=O)(=O)c2cccc3nsnc23)CC1)N1CCN(c2ccccn2)CC1 (stereo not given) | inconclusive: -42.1%
81 | O=C(NC1CCCCC1)C1CCCN(S(=O)(=O)c2ccc(F)cc2)C1 (stereo not given) | active: -81.2%
82 | CC1CC1C(=O)OCC(=O)c1c(N)n(C)c(=O)n(C)c1=O (stereo not given) | inconclusive: -46.5%
83 | NC(=O)C1(N2CCCCC2)CCN(C(=S)Nc2ccc(Cl)cc2)CC1 | inconclusive: -40.6%
84 | COCCCNC(=O)c1ccc(C)c(-n2c(C)nc3cccnc32)c1 | inconclusive: 0%
85 | COCCn1c(SCC(=O)c2c[nH]c3ccccc23)nc2cc(C(=O)NC(C)C)ccc2c1=O | inactive: 24.4%
